Experimental data from paper PMC8546593.
Results are given in words; binding and its absence hold for the method and conditions named. In cells and extracts the contact can be indirect. Some results given as binding are weak or reduced against the parent protein; the word gives no strength.

The chains behind the UniProt entries cited, without tags or fusion partners. Residues count along the entry.
UniProt O88907: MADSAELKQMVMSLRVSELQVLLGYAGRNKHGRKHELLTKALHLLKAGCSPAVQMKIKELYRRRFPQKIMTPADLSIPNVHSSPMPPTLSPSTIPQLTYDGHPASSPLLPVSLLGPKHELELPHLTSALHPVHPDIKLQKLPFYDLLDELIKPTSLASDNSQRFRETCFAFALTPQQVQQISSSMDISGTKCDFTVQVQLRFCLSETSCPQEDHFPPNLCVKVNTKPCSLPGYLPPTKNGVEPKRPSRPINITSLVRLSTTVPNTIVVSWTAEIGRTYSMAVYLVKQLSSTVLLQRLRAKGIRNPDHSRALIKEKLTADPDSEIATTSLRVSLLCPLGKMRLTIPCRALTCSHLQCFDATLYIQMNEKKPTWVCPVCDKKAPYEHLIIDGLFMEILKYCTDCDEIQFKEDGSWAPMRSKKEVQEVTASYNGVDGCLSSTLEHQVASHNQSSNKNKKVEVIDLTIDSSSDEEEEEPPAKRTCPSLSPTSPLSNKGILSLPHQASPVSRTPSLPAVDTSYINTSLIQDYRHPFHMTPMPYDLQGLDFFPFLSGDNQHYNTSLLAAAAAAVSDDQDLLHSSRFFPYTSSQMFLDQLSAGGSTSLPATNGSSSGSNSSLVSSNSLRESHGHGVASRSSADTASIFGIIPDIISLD
UniProt P25799, residues 1-431: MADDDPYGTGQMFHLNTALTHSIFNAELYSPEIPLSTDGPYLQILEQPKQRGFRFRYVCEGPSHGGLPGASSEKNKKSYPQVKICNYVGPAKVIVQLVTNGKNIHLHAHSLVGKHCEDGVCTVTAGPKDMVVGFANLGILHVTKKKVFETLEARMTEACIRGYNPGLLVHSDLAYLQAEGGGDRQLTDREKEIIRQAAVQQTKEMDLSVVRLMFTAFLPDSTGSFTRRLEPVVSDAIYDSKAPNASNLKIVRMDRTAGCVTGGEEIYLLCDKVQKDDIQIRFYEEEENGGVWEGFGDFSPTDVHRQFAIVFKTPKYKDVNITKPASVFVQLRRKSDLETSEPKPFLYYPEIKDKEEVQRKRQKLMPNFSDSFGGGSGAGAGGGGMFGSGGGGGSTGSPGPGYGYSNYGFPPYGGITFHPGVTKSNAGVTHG
UniProt Q60636: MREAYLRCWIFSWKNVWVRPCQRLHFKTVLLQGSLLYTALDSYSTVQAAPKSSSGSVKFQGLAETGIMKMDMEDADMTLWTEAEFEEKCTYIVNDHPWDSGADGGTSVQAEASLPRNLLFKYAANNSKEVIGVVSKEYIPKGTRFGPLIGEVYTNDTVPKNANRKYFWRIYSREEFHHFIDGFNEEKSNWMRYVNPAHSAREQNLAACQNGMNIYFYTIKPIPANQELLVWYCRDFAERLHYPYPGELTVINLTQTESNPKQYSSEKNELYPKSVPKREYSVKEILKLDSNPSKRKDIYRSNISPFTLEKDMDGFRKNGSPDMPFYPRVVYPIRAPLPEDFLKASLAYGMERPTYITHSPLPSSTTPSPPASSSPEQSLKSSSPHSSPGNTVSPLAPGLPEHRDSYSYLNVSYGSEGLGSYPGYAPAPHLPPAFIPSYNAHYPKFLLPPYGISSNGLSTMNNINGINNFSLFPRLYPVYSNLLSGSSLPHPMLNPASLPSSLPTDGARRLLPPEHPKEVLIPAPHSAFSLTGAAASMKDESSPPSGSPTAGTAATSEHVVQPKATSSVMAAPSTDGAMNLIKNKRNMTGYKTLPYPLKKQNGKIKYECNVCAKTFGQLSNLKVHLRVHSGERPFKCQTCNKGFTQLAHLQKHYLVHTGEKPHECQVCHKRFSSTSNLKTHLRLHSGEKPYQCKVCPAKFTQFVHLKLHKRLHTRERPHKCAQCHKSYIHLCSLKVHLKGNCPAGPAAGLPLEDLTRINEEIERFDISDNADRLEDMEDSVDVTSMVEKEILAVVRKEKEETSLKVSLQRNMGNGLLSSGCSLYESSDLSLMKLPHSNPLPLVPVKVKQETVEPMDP

Columns and labels:
[1] = target: protein inhibitor of activated Stat1 (Pias1) (mouse (endogenous in IEC4.1)) (UniProt O88907); assay: co-IP; endogenous proteins; nuclei extracts of IEC4.1 cells stimulated with IFN-γ; whole-cell extracts as input control
[2] = target: NF-κB p50 subunit (mouse (endogenous in IEC4.1)) (UniProt P25799); assay: co-IP; endogenous proteins; IEC4.1 cells lysed in 20 mM Tris-HCl pH 8.0, 150 mM NaCl, 1% NP-40; 500 μg lysate protein with primary antibody at 4°C overnight, protein A-Sepharose, Western blot; cells infected with C. parvum or stimulated with IFN-γ (2 h), some treated with control, XR_001779380 or Prdm1 siRNA or Prdm1-/-

binding [1] | binding [2] | Molecule
binds | – | PR/SET domain 1 (Prdm1) (from UniProt Q60636 1-856)
– | binds | E74-like factor epithelial-specific transcription factor 3 (Elf3) (protein, UniProt Q3UPW2 1-391) MAATCEISNVFSNYFNAMYSSEDPTLAPAPPTTFGTEDLVLTLNNQQMTLEGPGPQTRSQRDRTDPLAVLHLAEKASWTSERPQFWSKTQVLEWISYQVEKNKYDASSIDFSRCDMDGATLCSCALEELRLVFGPLGDQLHAQLRDLTSNSSDELSWIIELLEKDGMSFQESLGDSGPFDQGSPFAQELLDDGRQASPYYCSTYGPGAPSPGSSDVSTARTATPQSSHASDSGGSDVDLDLTESKVFPRDGFPDYKKGEPKHGKRKRGRPRKLSKEYWDCLEGKKSKHAPRGTHLWEFIRDILIHPELNEGLMKWENRHEGVFKFLRSEAVAQLWGQKKKNSNMTYEKLSRAMRYYYKREILERVDGRRLVYKFGKNSSGWKEEEVGESRN
